Publication PMC6706905
No constants are given. Whether binding was seen depends on the method and setting. In cells and extracts the contact can be indirect. Some entries that bind do so weakly or less than the wild type.

The chains behind the UniProt entries cited, without tags or fusion partners.
UniProt P21453: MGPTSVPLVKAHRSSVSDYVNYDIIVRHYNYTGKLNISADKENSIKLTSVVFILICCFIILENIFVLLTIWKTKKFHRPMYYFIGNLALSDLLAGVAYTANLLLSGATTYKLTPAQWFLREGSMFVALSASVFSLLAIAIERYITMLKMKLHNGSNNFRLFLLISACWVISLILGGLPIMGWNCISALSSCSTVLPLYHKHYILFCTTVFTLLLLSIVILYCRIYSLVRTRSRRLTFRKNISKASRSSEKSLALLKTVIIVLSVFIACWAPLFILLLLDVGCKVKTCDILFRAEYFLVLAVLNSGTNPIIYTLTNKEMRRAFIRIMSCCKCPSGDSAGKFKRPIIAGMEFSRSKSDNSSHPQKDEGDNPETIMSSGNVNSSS
UniProt P40763: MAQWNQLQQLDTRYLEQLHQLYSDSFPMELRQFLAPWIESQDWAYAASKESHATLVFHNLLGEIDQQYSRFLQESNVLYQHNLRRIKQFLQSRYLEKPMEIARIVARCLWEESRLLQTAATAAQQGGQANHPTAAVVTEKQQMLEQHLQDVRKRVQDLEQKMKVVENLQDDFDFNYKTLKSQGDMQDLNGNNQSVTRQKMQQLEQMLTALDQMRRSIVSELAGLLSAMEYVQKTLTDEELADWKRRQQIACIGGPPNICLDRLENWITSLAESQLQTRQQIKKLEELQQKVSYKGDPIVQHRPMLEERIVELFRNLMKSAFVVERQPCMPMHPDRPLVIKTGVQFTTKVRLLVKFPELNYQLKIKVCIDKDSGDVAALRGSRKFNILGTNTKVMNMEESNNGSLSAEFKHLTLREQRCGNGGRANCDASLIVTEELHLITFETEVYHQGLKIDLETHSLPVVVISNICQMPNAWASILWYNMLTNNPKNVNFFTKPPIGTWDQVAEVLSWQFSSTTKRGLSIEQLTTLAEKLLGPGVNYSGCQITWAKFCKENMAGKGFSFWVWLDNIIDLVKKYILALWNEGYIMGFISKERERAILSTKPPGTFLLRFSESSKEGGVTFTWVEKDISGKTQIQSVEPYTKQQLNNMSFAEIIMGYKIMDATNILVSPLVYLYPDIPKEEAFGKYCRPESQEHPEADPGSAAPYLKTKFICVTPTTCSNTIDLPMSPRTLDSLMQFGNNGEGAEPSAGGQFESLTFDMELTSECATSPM

Target: Sphingosine-1-phosphate receptor 1 (S1PR1) (human (endogenous in TE-13)) (UniProt P21453)
Assay: co-IP; TE-13 total lysate incubated with protein A/G agarose and S1PR1 antibody or STAT3 antibody at 4 °C overnight; immune complexes analysed by Western blot with antibodies against S1PR1 and STAT3

signal transducing activator of transcription 3 (STAT3) (from UniProt P40763 1-770)
binding: binds
